The exact form of at least one protein or probe is not confirmed. Where a protein sequence is shown, tags need not be part of it.
Legend:
[1] = molecular target: T1, TTERecF monomer (ATP-free) (Thermoanaerobacter tengcongensis MB4) (UniProt Q8RDL3); assay: BLI; conditions: no ATP, kd 8.46E-02 s-1; BLI: 20 mM Tris-HCl pH 7.0, 200 mM NaCl, 0.05% Tween 20, 25 C; biotinylated DNA on streptavidin sensors; no Mg2+ stated; recombinant protein; protein details: N-terminal His6; label: 5' biotin (strand 1)
T1 sequence (looked up, limits assumed): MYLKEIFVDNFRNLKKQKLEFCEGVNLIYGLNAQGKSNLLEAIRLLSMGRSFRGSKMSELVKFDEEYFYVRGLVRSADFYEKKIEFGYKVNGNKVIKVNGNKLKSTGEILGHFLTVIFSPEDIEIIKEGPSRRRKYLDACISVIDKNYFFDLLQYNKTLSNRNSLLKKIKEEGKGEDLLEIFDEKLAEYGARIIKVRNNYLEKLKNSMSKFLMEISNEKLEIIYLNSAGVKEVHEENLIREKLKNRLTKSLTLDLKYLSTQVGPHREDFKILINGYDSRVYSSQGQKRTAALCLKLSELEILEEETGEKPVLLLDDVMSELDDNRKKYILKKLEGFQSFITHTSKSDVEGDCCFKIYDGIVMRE

[2] = molecular target: T2, TTERecF-ATP dimer (Thermoanaerobacter tengcongensis MB4) (UniProt Q8RDL3); assay: BLI; conditions: ATP (1 mM in preincubation), kd 7.12E-04 s-1, text says almost 1000x stronger than monomer, values give about 260x; BLI: 20 mM Tris-HCl pH 7.0, 200 mM NaCl, 0.05% Tween 20, 25 C; biotinylated DNA on streptavidin sensors; no Mg2+ stated; recombinant protein; protein details: N-terminal His6; label: 5' biotin (strand 1)
T2 sequence (looked up, limits assumed): T1 sequence (looked up, limits assumed)

ACCTTATGGAAAGCATCGTAG (double strand) [21mer dsDNA]
Kd [1]: 1630 nM
Kd [2]: 6.2 nM
